Results reported in patent publication US6734186B1, “Compounds for the treatment of female sexual dysfunction” (Pfizer Inc., priority 1999, dated 2004).
At least one compound was matched to its structure with a doubt left.

Test system: isolated rabbit vagina
Test: Relaxation of precontracted (1 μM phenylephrine) isolated rabbit vaginal strips
Format: cell-based
Conditions: forskolin 10 μM
Experimental: 3.7 (a). Rabbit vagina in vitro preparation:—Female New Zealand white rabbits (2.0-3.0 kg) were killed by cervical dislocation. The abdominal cavity was opened and the vagina excised. Tissue strips were mounted longitudinally in Wesley Co. 5 ml silanised organ chambers with braided silk sutures (6/0 gauge) at an initial resting tension of 1.5 g in Krebs bicarbonate buffer maintained at 37° C. and gassed with 95%O2/5%CO2. The upper ligature of each tissue strip was attached to a 10 g capacity force-displacement transducer and changes in isometric force were measured and recorded using a DART in vitro data capture system. Tissues were allowed to equilibrate for 1.5 hours and were regularly washed with Krebs.
Each tissue was contracted using 1 μM bath concentration of phenylephrine. […] Tissues then received either a test agent (eg NEP or PDE inhibitor) or DMSO vehicle (time matched control).
For the purpose of curve fitting the minimum relaxation response was constrained to 0% and the maximum relaxation response was allowed to free fit.

## C=C[C@@]1(C)CC(=O)[C@]2(O)[C@@]3(C)[C@@H](O)CCC(C)(C)[C@@H]3[C@H](O)[C@H](OC(C)=O)[C@@]2(C)O1 [forskolin]
  relaxation of isolated tissue: completely relax
